These results are taken from PMC6016464, “Folding and binding pathways of BH3-only proteins are encoded within their intrinsically disordered sequence, not templated by partner proteins” (The Journal of Biological Chemistry, 2018).

These are yes or no findings as the source states them, for the method shown. Some entries that bind do so weakly or less than the wild type. Where no end group is shown, it is not given here. The star is where a group is joined. TAMRA = 5-carboxytetramethylrhodamine, CN(C)c1ccc2c(-c3ccc(C(=O)*)cc3C(=O)[O-])c3ccc(=[N+](C)C)cc-3oc2c1

The target in assay [1] is T1, A1 (mouse, residues 1-152) (mouse) (UniProt Q07440).
T1 sequence: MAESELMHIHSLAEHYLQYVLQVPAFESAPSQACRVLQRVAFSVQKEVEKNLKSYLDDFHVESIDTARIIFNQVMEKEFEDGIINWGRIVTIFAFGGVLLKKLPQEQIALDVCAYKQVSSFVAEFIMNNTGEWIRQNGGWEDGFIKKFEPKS
Nature of the assay: stopped-flow fluorescence kinetics; association kinetics by TAMRA fluorescence, pseudo-first-order, folded partner at least 10-fold over the peptide; 25 °C; 50 mM sodium phosphate, 0.05% (v/v) Tween 20, pH 7.0; Kd calculated as koff/kon with koff from the dissociation kinetics; both purified.

Assay [2] addresses T1, A1 (mouse, residues 1-152) (mouse). Nature of the assay: dissociation kinetics by competition (fluorescence); preformed complex of TAMRA peptide and partner protein mixed with various concentrations of unlabeled PUMA peptide as competitor; stopped-flow or spectrophotometer; 25 °C; 50 mM sodium phosphate, 0.05% (v/v) Tween 20, pH 7.0; both purified.
Assay [3] has as its target T2, MCL-1 (mouse, residues 152-308) (mouse).
T2 construct: remnant of thrombin cleavage at the N-terminus of MCL-1; MCL-1, mouse, residues 152-308, UniProt P97287; source: E. coli C41 pLysS, purified (Ni2+ agarose, thrombin cleavage, ion exchange, Superdex G75 gel filtration); not shown: His6, N-terminal, cleaved
T2 chain: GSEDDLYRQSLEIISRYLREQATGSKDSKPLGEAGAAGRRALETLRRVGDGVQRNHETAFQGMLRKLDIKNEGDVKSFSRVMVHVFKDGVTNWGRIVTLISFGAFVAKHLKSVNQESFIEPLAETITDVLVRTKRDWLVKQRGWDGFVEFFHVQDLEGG
Nature of the assay: stopped-flow fluorescence kinetics; association; TAMRA-labelled peptide with folded partner at least 10-fold higher (pseudo-first-order); kon from the gradient of kobs versus partner concentration; 25 °C; 50 mM sodium phosphate, 0.05% (v/v) Tween 20, pH 7.0; both purified.

In assay [4] the target is T1, A1 (mouse, residues 1-152) (mouse). Put plainly: stopped-flow fluorescence kinetics; association kinetics by TAMRA fluorescence, pseudo-first-order, folded partner at least 10-fold over the peptide; 25 °C; 50 mM sodium phosphate, 0.05% (v/v) Tween 20, pH 7.0; Kd calculated as koff/kon with koff from the dissociation kinetics; both purified. This is another data set of the same source.

B1: BID peptide (mouse, residues 76-110), N-terminal TAMRA (peptide, UniProt P70444 76-110, looked up)
peptide: {TAMRA}-SESQEEIIHNIARHLAQIGDEMDHNIQPTLVRQLA
notes: BID, mouse, residues 76-110, UniProt P70444; source: synthetic peptide (synthesized by Biomatik)
With B1, the binding result in assay [1] and in assay [2] was “binds” throughout.
For the molecule RVEEEEWAREIGAQLRRAADDLNAQYERRRQEEQH (5-carboxytetramethylrhodamine (TAMRA) conjugated at the N terminus) [PUMA peptide (mouse, residues 127-161, M144A, used as wild type), TAMRA-labelled], the binding entry in assay [3] was “binds”.
With RVEEEEWAREIGAQLRRAADDLNAQYERRRQEEQH (peptide, UniProt Q99ML1 127-161, 5-carboxytetramethylrhodamine (TAMRA) conjugated at the N terminus) [PUMA peptide (mouse, residues 127-161, M144A), N-terminal TAMRA], the binding entry in assay [4] and in assay [2] was “binds” each time.
